Experimental data taken from PMC12533322.
No constants are given. Whether binding was seen depends on the method and setting. Binding seen in cells or lysates may run through a third protein. Some binding calls cover weakened binding; strength is not graded here.

Target: T1, Lysosomal integral membrane protein type 2 (LIMP2) (human (endogenous in THP1)) (UniProt Q14108)
T1 sequence: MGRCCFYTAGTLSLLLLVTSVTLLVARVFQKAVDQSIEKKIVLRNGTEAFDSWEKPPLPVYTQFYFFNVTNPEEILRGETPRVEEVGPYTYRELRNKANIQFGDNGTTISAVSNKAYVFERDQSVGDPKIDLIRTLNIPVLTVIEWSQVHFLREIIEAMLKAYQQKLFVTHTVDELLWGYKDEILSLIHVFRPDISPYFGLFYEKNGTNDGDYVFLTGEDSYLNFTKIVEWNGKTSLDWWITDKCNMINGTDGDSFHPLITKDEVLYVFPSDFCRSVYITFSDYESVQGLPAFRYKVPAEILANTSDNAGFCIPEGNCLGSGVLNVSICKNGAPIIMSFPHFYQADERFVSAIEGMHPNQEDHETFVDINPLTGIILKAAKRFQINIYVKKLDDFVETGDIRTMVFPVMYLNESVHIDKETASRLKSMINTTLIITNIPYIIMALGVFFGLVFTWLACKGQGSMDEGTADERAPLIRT
Assay: co-IP; THP1 cells treated without or with LW-213 (5 µM/15 µM) in the presence of BAF-A1 (50 nM) for 6 h; cell lysates incubated overnight at 4 °C with antibodies and protein A/G-conjugated beads; washed three times with RIPA buffer; western blot; the precipitating antibody is not stated

B1: TBC1D15 (protein, UniProt Q8TC07 1-691)
chain: MAAAGVVSGKIIYEQEGVYIHSSCGKTNDQDGLISGILRVLEKDAEVIVDWRPLDDALDSSSILYARKDSSSVVEWTQAPKERGHRGSEHLNSYEAEWDMVNTVSFKRKPHTNGDAPSHRNGKSKWSFLFSLTDLKSIKQNKEGMGWSYLVFCLKDDVVLPALHFHQGDSKLLIESLEKYVVLCESPQDKRTLLVNCQNKSLSQSFENLLDEPAYGLIQAGLLDRRKLLWAIHHWKKIKKDPYTATMIGFSKVTNYIFDSLRGSDPSTHQRPPSEMADFLSDAIPGLKINQQEEPGFEVITRIDLGERPVVQRREPVSLEEWTKNIDSEGRILNVDNMKQMIFRGGLSHALRKQAWKFLLGYFPWDSTKEERTQLQKQKTDEYFRMKLQWKSISQEQEKRNSRLRDYRSLIEKDVNRTDRTNKFYEGQDNPGLILLHDILMTYCMYDFDLGYVQGMSDLLSPLLYVMENEVDAFWCFASYMDQMHQNFEEQMQGMKTQLIQLSTLLRLLDSGFCSYLESQDSGYLYFCFRWLLIRFKREFSFLDILRLWEVMWTELPCTNFHLLLCCAILESEKQQIMEKHYGFNEILKHINELSMKIDVEDILCKAEAISLQMVKCKELPQAVCEILGLQGSEVTTPDSDVGEDENVVMTPCPTSAFQSNALPTLSASGARNDSPTQIPVSSDVCRLTPA
B1 was tested, and the binding was “binds”.
